Experimental data published in PubChem BioAssay AID504467 (National Center for Advancing Translational Sciences (NCATS), 2011).
Among all 330,000 compounds or so, about 7,700 (2.3%) were called active. The shares of active, inactive and inconclusive entries below differ from those in the screen. Calls follow the shape of the dose curve; as a rule, active = well fitted inhibition curve with a large enough effect; inconclusive = small, poorly fitted or top-dose-only effect, or effect the other way; inactive = flat fitted curve, though single readings scatter. Potencies of inconclusive entries are doubtful fits and often do not repeat.

Experiment: qHTS screen for small molecules that inhibit ELG1-dependent DNA repair in human embryonic kidney (HEK293T) cells expressing luciferase-tagged ELG1; also: nearly all actives have a fitted effect of over 55% in size
Details: HEK293T ELG1-luciferase reporter, luminescence, 16 h, DNA damage induced by 5-fluorouridine; activity change, negative = inhibition: at 46.1 µM (top of the series)
Summary of the method: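 Reporter activity after DNA damage by 5-fluorouridine is monitored. Compound-treated cells incubate 16 hr at 37 °C, then ONE-Glo is added for 30 min before luminescence reading.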
% is scaled to controls: 0 for no effect and ±100 for the full control effect; potency is read from the fitted curve at half-maximal effect.

Structure (SMILES) | Potency | activity change, negative = inhibition
Cc1cc(NC(=O)c2ccc3c(c2)C(=O)N(C)C3=O)no1 | inactive | 
Cc1ccnc(NC(=O)c2ccc(Cl)c([N+](=O)[O-])c2)c1 | inconclusive: 16.4 µM [activator, partial curve] | 
O=C(NCCCn1ccnc1)c1cn(-c2ccccc2)nc1-c1ccc(F)cc1 | inactive | 
CNc1nc(SC)n(C)c(=O)c1N=O | inconclusive: 14.6 µM [activator, partial curve] | 
CC(=O)C1CCCN(C(=O)c2ccc3oc(CCc4ccccc4)nc3c2)C1 (configuration not stated) | inconclusive: 6.51 µM [activator, partial curve] | 
CCOCCCNC(=O)C1CCC(CNS(=O)(=O)c2cccc3nsnc23)CC1 (configuration not stated) | inactive | 
COc1cc(NC(=O)Cn2cnc(C(=O)Nc3ccc(C)c(C)c3)n2)cc(OC)c1OC | inactive | 
Cc1c(Cl)cccc1NC(=S)N1CCCN(Cc2ccccc2F)C1 | inactive | 
CC(NC(=O)c1ccc2c(c1)OCO2)C(c1cccs1)N1CCOCC1 (configuration not stated) | inactive | 
CCOC(=O)C1CCN(C(=O)CNC(=O)c2nn(-c3ccc(OC)cc3)c(=O)c3ccccc23)CC1 | inconclusive: 25.9 µM [activator, partial curve, poor fit] | 
O=C(Nc1cccnc1)c1ccccc1O | inconclusive: 20.6 µM [activator, single point] | 
COc1ccccc1N1CCN(C(=O)CCC(=O)Nc2nnc(C(C)C)s2)CC1 | inconclusive: 29.1 µM [activator, single point] | 
CN(CC(=O)Nc1cccc(F)c1)C(=O)c1ccc(C(=O)c2ccccc2)cc1 | inconclusive: 18.3 µM [inhibitor, single point] | 
CCOc1ccccc1NC(=O)c1cc(S(=O)(=O)N2CCOCC2)ccc1C | inactive | 
CC[C@H](C)/C=C(C)/C=C/C(=O)Cc1cc(O)c(C)c(O)c1C=O | inactive | 
COc1ccccc1C(=O)NCC(=O)NCC1(N2CCCCC2)CCCCC1 | inactive | 
Cc1cc(Br)c2c(c1)=C(c1sc(N3CCCCCC3)nc1O)C(=O)N=2 | inconclusive: 5.17 µM [activator, partial curve] | 
COc1ccc(CCNC(=O)/C(C#N)=C2\N=C(NC(=O)c3ccco3)c3ccccc32)cc1 | active: 7.3 µM | 
O=C(Nc1ccccc1C(=O)NCCCN1CCOCC1)c1ccc(F)cc1 | inactive | 
CC(=O)c1c(C)[nH]c(C(=O)NCC2CCCCC2)c1C | inconclusive: 13 µM [activator, partial curve] | 
O=C(Nc1ccc(Cl)c(Cl)c1)c1ccccc1 | inconclusive: 5.62 µM [activator, partial curve] | 
O=C(Nc1nnc(CCc2ccccc2)s1)C1CCCO1 (configuration not stated) | inconclusive: 20.6 µM [activator, single point] | 
c1ccc(-c2nc(N3CCOCC3)cc(N3CCOCC3)n2)cc1 | active: 14.6 µM | 
Cc1c(Cl)cccc1NC(=O)CCN1CCOCC1 | inactive | 
CCCC(=O)NC(c1ccco1)c1cc(Cl)c2cccnc2c1O (configuration not stated) | inconclusive: 20.6 µM [inhibitor, partial curve] | 
CC1Nc2ncnc(N3CCN(c4ccccc4)CC3)c2N(Cc2ccc(Cl)cc2)C1=O (configuration not stated) | inconclusive: 14.1 µM [inhibitor, single point] | 

Three compounds from above, arranged by length of the SMILES, low to high:
Structure (SMILES) | Potency | activity change, negative = inhibition
O=C(Nc1ccc(Cl)c(Cl)c1)c1ccccc1 | inconclusive: 5.62 µM [activator, partial curve] | 
CC(NC(=O)c1ccc2c(c1)OCO2)C(c1cccs1)N1CCOCC1 (configuration not stated) | inactive | 
CCOC(=O)C1CCN(C(=O)CNC(=O)c2nn(-c3ccc(OC)cc3)c(=O)c3ccccc23)CC1 | inconclusive: 25.9 µM [activator, partial curve, poor fit] | 

(listing goes on)

Structure (SMILES) | Potency | activity change, negative = inhibition
COc1ccc2nc(NC(=O)C3CCN(S(=O)(=O)c4cccs4)CC3)sc2c1 | active: 10.3 µM | 
CCCCOC(=O)c1ccc(NC(C)=O)cc1 | inconclusive: 11.6 µM [activator, partial curve] | 
NCC(c1ccccc1Cl)c1c[nH]c2ccccc12 (configuration not stated) | inactive | 
Clc1ccc(Nc2nc(-c3cccs3)cs2)nc1 | inconclusive: 1.64 µM [activator, partial curve] | 
O=C(Nc1cccnc1)c1cc(-c2ccc3c(c2)OCO3)on1 | inconclusive: 20.6 µM [activator, partial curve] | 
Cc1[nH]c2c(C)cccc2c1CCNS(=O)(=O)c1cccc([N+](=O)[O-])c1 | inactive | 
Nc1ccc(S(N)(=O)=O)cc1N | inconclusive: 4.61 µM [activator, full curve] | 
CN(CC#CC(O)(c1ccccc1)c1ccccc1)C(C)(C)C | inactive | 
COc1ccc(/C(C)=N/NC(=O)CNC(=O)CCc2ccccc2)c(OC)c1 | inactive | 
O=C(NCCc1ccccc1Cl)c1ccc2nc3ccccc3c(=O)n2c1 | inconclusive: 18.3 µM [activator, partial curve, poor fit] | 
O=C(NC1CC1)C1CCCN1S(=O)(=O)c1ccc2ccccc2c1 (configuration not stated) | inactive | 
Cc1cc(NC(=O)C2CCCCC2)ncc1NC(=O)c1ccccn1 | inactive | 
COc1ccc(NC(=O)c2cc(-c3ccccc3Cl)no2)cc1 | inactive | 
O=C(NCc1ccc2c(c1)OCO2)Nc1ccc(F)cc1 | inconclusive: 23.1 µM [activator, partial curve] | 
COc1ccc(-c2oc3ccc(-c4cc(OC)c(OC)c(OC)c4)cc3c2C#Cc2ccccn2)cc1 | inconclusive: 4.61 µM [inhibitor, single point] | 
Cn1nccc1NC(=O)CSCC(=O)O |  | inconclusive: 32% [activator]
CCOc1ccc(NC(=O)CN(C)C(=O)c2cccnc2Sc2ccc(C)c(C)c2)cc1OCC | inconclusive: 29.1 µM [inhibitor, single point] | 
COc1ccc2nc(NC(=O)c3ccccc3O)sc2c1 | inconclusive: 0.73 µM [activator, partial curve] | 
CC1(N(O)/C=C2\C=CC=CC2=O)CCCCC1=O (configuration not stated) | inactive | 
Cc1ccc(Cl)cc1NC(=O)C(=O)N1CCCCC1 | inconclusive: 13 µM [activator, partial curve, poor fit] | 
CCOC(=O)CSc1nnc(-c2ccccc2)c(-c2ccccc2)n1 | inactive | 
Cc1cccc(C(C)C)c1NC(=O)c1ccc(OCC2CCCO2)cc1 (configuration not stated) | inconclusive: 7.3 µM [inhibitor, partial curve] | 
O=[N+]([O-])c1cccc2ccc(/C=C/c3ccc(F)cc3)nc12 | inconclusive: 8.2 µM [activator, partial curve] | 
FC(F)(F)c1cccc(Nc2nc(N3CCOCC3)nc(N3CCOCC3)n2)c1 | inconclusive: 8.2 µM [inhibitor, partial curve, poor fit] | 
O=c1[nH]c2c(s1)C(c1ccco1)C1C3CCC(C3)C1S2 (configuration not stated) | inactive | 
Cc1cccc(-c2noc(Cc3ccccc3)n2)c1 | inconclusive: 18.4 µM [activator, partial curve] | 

Structure (SMILES) | Potency | activity change, negative = inhibition
Cc1cccc(NC(=O)/C=C/c2cccs2)n1 | inconclusive: 2.59 µM [activator, full curve] | 
CON(C)S(=O)(=O)c1cccc(C(=O)Oc2ccc(N(C)S(=O)(=O)c3ccccc3)cc2)c1 | inactive | 
CCN1CCN(S(=O)(=O)c2ccc(Cl)c(C(=O)NCc3ccco3)c2)CC1 | inactive | 
CC(Oc1ccc(C(=O)NCCc2ccccc2)cc1)C(=O)O (configuration not stated) | inconclusive: 25.9 µM [activator, partial curve, poor fit] | 
CCOC(=O)Nc1nnc(-c2ccccc2OC)s1 | inconclusive: 18.4 µM [activator, partial curve] | 
Nc1c(Cl)ncnc1N/N=C/c1cccnc1 | inactive | 
CN(Cc1ccc(F)cc1)Cc1nc(-c2ccccc2)no1 | inactive | 
COc1cccc2[nH]c3c(N4CCCCC4)ncnc3c12 | inconclusive: 29.1 µM [inhibitor, single point] | 
CCC1(CC)Cc2ccccc2C(N)=C1C#N | inactive | 
CN(CC(=O)Nc1ccc(F)cc1)C(=O)c1ccc(OCc2cn3ccccc3n2)cc1 | inactive | 
O=C(Nc1ccccc1Cl)OC1CCCCC1 | inconclusive: 29.1 µM [activator, single point] | 
CC1CCN(Cc2c(C(=O)N/N=C/c3ccc(C(C)(C)C)cc3)nnn2-c2nonc2N)CC1 | inconclusive: 29.1 µM [activator, single point] | 
CCC(Oc1ccccc1OC)C(=O)Nc1ccc2c(c1)n(C)c(=O)n2C (configuration not stated) | inconclusive: 2.91 µM [activator, partial curve] | 
O=C1Nc2cccnc2Sc2ccccc21 | inactive | 
Cn1ccc(NC(=O)Nc2cccc([N+](=O)[O-])c2)n1 | inconclusive: 32.6 µM [activator, partial curve, poor fit] | 
COCCN1CCN(C(=O)C2CCC(=O)N(CCc3ccccc3)C2)CC1 (configuration not stated) | inactive | 
N#CCc1c(C#N)c(N)nc(N2CCN(c3ccc(F)cc3)CC2)c1C#N | inconclusive: 29.1 µM [inhibitor, single point] | 
O=C1CC2(CON=C2c2ccc(F)cc2)C(=O)N1c1ccc(F)cc1 (configuration not stated) | inconclusive: 29.1 µM [activator, partial curve, poor fit] | 
Cc1ccc(C(=O)NCCC2=CCCCC2)cc1S(=O)(=O)N1CCCCC1 | inactive | 
COc1ccc(-c2cnnc(N/N=C/c3ccc(-c4ccc([N+](=O)[O-])cc4)o3)n2)cc1 | inconclusive: 29.1 µM [inhibitor, partial curve, poor fit] | 
COc1ccc(-c2cc(=O)n(-c3nc4ccccc4[nH]3)[nH]2)cc1 | inconclusive: 18.4 µM [activator, single point] | 
COC(=O)/C=C/c1ccc(-n2ccnc2)cc1 | inactive | 
COc1cccc(C(=O)CN(C(=O)c2ccc(Cl)cc2Cl)N2C(=O)c3ccccc3C2=O)c1 | inconclusive: 9.2 µM [activator, partial curve, poor fit] | 
COc1cc(/C=C/C(=O)N2CCC=CC2=O)cc(OC)c1OC | inconclusive: 15.8 µM [inhibitor, single point] | 
